Earlier results as cited in paper PMC12805357, “Cooperative ligand binding in a bacterial heme-based oxygen sensor” (The Journal of Biological Chemistry, 2025).

Parameters: method as in earlier work
Details: myoglobins; ref 7 of the supplement (Faulkner et al., 1995)

sperm whale myoglobin (swMb): sperm whale myoglobin, literature comparison protein
n max: 0.9
